# Results deposited as PubChem BioAssay AID1259281 (Sanger Institute, 2017).
# Assay: 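Screen kinases and frequently colorectal-mutated genes for lethal knock-downs and drug partners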 (primary screen)
# System: human COLO678 colorectal cancer cell line
# Reagents: siRNA pool against human genes
# Challenge: anchor drugs at fixed doses: BYL719 1 µM, cetuximab 5 µg/ml or trametinib 10 nM; DMSO vehicle for the siRNA-alone arm
# Read-out: 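Surviving cells scaled to non-targeting siRNA control as replicate means; robust z-score for knock-down alone; synergy scores weigh knock-down with drug against the predicted combined effect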
# Direction: robust z-score, siRNA alone: higher = more viable cells; strongly negative means essential
# Hit rule: 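Called essential (knock-down alone) if knock-down by itself drops cell number to a robust z-score under -3; all others no change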
# Calls: active = essential (knock-down alone); inactive = no change
# Shown is one part, drawn at random, of 794 reagents tested. Over the whole deposit, 22 (2.8%) are marked active. 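Calls rest on knock-down alone only; drug synergy scores play no part in them.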 Further read-outs or replicates are left out here. The record does not give: the amount of reagent, the time to read-out.
gene knocked down,"robust z-score, siRNA alone",Call
RPS6KC1,0.473,inactive
NME2,0.473,inactive
LYN,0.473,inactive
PIK3R3,0.473,inactive
AKT1,0.473,inactive
SPEG,0.473,inactive
TSKS,0.473,inactive
CDC73,0.21,inactive
VRK1,0.473,inactive
BPTF,-1.19,inactive
EFNB3,0.368,inactive
ANKK1,-0.316,inactive
CALM3,0.16,inactive
IRAK1,0.473,inactive
MAP3K10,0.473,inactive
RPS6KB2,-2.35,inactive
IRAK4,0.473,inactive
CHEK2,0.0641,inactive
TSSK3,0.473,inactive
KRAS,-5.55,active
PRKCG,0.473,inactive
CSNK1A1L,0.473,inactive
PIK3CA,0.473,inactive
DAPK3,-1.52,inactive
LRRK2,0.473,inactive
CKM,0.473,inactive
SIK1,0.473,inactive
EPHA5,-1.22,inactive
PIP5K1A,0.473,inactive
PIK3C2B,0.473,inactive
CASK,-0.358,inactive
KHK,0.375,inactive
CLK1,0.473,inactive
CASP8,0.473,inactive
GNE,0.473,inactive
TAF1,-1.6,inactive
RPS6KL1,0.473,inactive
CALM2,0.288,inactive
CDKN2D,0.473,inactive
ULK2,0.473,inactive
CDK13,0.473,inactive
NPR2,0.473,inactive
ATR,0.473,inactive
ALPK2,-1.78,inactive
RNASEL,0.473,inactive
GRK6,0.473,inactive
CKB,0.473,inactive
CAMK2D,0.473,inactive
APC,0.473,inactive
NUCKS1,0.473,inactive
AK4,-0.943,inactive
ROCK2,0.473,inactive
GUCY2C,0.473,inactive
MAPK13,0.473,inactive
FER,0.473,inactive
IDH2,0.473,inactive
STK33,0.473,inactive
MAPK7,0.473,inactive
BMPR2,0.473,inactive
SCYL1,0.473,inactive
ABL2,-2.53,inactive
DBF4,-0.478,inactive
RET,0.473,inactive

Reagents listed above marked active, once more:
gene knocked down,"robust z-score, siRNA alone",Call
KRAS,-5.55,active
